In the experiment the target is T1, WRB-Cub-LexA (split-ubiquitin bait) (UniProt O00258).
T1 sequence: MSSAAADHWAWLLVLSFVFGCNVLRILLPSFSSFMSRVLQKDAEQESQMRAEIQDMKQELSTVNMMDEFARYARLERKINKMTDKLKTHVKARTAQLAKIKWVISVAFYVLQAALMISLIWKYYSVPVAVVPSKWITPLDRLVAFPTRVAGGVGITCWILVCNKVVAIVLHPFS
Kind of experiment: two-hybrid; split-ubiquitin yeast two-hybrid in S. cerevisiae NMY51; WRB-Cub-LexA bait, N-ubiquitin-tagged preys; serial dilutions spotted on HC-ura-trp or HC-ura-trp-his plates.

Chains of the proteins cited; added tags and fusions are not shown.
UniProt P40056: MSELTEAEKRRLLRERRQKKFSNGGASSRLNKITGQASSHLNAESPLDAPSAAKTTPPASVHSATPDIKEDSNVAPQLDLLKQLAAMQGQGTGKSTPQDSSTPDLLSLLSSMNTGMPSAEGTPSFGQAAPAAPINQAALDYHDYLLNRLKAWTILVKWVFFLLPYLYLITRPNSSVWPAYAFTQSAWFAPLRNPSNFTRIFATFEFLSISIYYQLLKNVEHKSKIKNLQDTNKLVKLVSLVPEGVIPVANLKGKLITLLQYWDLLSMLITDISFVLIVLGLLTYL
UniProt P49069: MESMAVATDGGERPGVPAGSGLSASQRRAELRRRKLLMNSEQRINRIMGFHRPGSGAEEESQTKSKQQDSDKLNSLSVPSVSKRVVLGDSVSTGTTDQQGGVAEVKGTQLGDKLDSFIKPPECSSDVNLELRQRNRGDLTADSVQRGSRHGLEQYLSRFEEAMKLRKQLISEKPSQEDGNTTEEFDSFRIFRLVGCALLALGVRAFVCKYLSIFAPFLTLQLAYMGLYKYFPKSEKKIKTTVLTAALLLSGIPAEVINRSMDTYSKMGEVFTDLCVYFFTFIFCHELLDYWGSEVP

Results are given in words; binding and its absence hold for the method and conditions named. Some entries that bind do so weakly or less than the wild type.

On to “Get2, N-ubiquitin-tagged (split-ubiquitin prey) (from UniProt P40056 1-285)”, for which the binding entry was “no binding”.

Regarding “CAML, N-ubiquitin-tagged (split-ubiquitin prey) (from UniProt P49069 1-296)”, the binding result is “binds”.

These data come from PMC3879356.
